Data source: PubChem BioAssay AID504793 (Drosophila RNAi Screening Center, 2011)
The deposit covers about 23,000 reagents; below is a random part of those that have a named target and a result. In the full data, 62 (0.27%) got an active call. 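Calls come from follow-up tests whose scores are not deposited, so confirmed genes may have low counts here; counts are not normalised per plate.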 The raw values are shown without normalisation. Unmarked entries are inactive. Names joined by + are all predicted targets of the reagent.

- Screen: 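Whole-genome screen for parts of the DNA damage checkpoint at G2/M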 (primary screen)
- System: Drosophila S2R+ cells
- Reagents: long dsRNA against Drosophila genes, about 0.25 µg dsRNA per well
- Time to read-out: 4 days of dsRNA, then 4 hours of drug before read-out
- Challenge: doxorubicin 0.5 µM for 4 hours to cause double-strand breaks, in cells also given a low, harmless dose of dsRNA against nbs to sensitise the assay
- Measured: 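Mitotic index as the number of phospho-histone H3-positive cells in each well following doxorubicin, given as raw counts without normalisation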
- Reading the numbers: mitotic cells: higher = more cells in mitosis, weaker G2 arrest
- Call rule: 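Genes are called active only when high mitotic counts were reproduced with independent dsRNAs and mitosis was checked for delay without damage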
- Calls: active = confirmed in follow-up tests; inactive = not confirmed

Against TBC1d7 + mRpS24 [DRSC14611], the values are mitotic cells, replicate 1 = 5.
Against Ufsp1 [DRSC04958], the values are mitotic cells, replicate 1 = 7.
For Ufsp1 [DRSC27352], the entry reads mitotic cells, replicate 1 = 10.
For CG2818 [DRSC00540] the deposit lists mitotic cells, replicate 1 = 1.
After knock-down of CG2747 [DRSC15450], the record shows mitotic cells, replicate 1 = 5.
Smvt [DRSC15426] scored mitotic cells, replicate 1 = 17.
AP-1-2beta [DRSC19336] showed mitotic cells, replicate 1 = 10.
After knock-down of AP-1-2beta [DRSC23868] the results were mitotic cells, replicate 1 = 5.
After knock-down of CycG [DRSC14324], the record shows mitotic cells, replicate 1 = 3.
CycG [DRSC23345] showed mitotic cells, replicate 1 = 10.
sob [DRSC00838] gave mitotic cells, replicate 1 = 3.
Silencing of sob [DRSC25075] gave: mitotic cells, replicate 1 = 3.
Knock-down of Non2 [DRSC08272] came out at: mitotic cells, replicate 1 = 2.
Depletion of Non2 [DRSC25342] gave: mitotic cells, replicate 1 = 7.
For Tdc2 [DRSC04999] the deposit lists mitotic cells, replicate 1 = 6.
Tdc2 [DRSC28952] gave mitotic cells, replicate 1 = 5.
After knock-down of Rnp4F [DRSC18706], the screen gave mitotic cells, replicate 1 = 9.
With knock-down of Rnp4F [DRSC26480], the record shows mitotic cells, replicate 1 = 5.
After knock-down of CG32391 [DRSC08865], the screen gave mitotic cells, replicate 1 = 3.
CG1103 [DRSC24616] gave mitotic cells, replicate 1 = 3.
Knock-down of CG7990 [DRSC19296] gave: mitotic cells, replicate 1 = 7.
CG7990 [DRSC23195] gave mitotic cells, replicate 1 = 6.
With knock-down of CG7990 [DRSC26580], the screen gave mitotic cells, replicate 1 = 9.

Entries listed so far whose gene name starts with R or r (2):
Rnp4F [DRSC18706] → mitotic cells, replicate 1 = 9
Rnp4F [DRSC26480] → mitotic cells, replicate 1 = 5
